Reference: PMC5705150
Read-outs that look alike come from different tables or passages of the source. These are yes or no findings as the source states them, for the method shown. In cells and extracts the contact can be indirect. Some entries that bind do so weakly or less than the wild type. For some assays here: Tags and fused reporters may be left off the sequences shown.

Chains of the proteins cited; added tags and fusions are not shown.
UniProt Q8BG40: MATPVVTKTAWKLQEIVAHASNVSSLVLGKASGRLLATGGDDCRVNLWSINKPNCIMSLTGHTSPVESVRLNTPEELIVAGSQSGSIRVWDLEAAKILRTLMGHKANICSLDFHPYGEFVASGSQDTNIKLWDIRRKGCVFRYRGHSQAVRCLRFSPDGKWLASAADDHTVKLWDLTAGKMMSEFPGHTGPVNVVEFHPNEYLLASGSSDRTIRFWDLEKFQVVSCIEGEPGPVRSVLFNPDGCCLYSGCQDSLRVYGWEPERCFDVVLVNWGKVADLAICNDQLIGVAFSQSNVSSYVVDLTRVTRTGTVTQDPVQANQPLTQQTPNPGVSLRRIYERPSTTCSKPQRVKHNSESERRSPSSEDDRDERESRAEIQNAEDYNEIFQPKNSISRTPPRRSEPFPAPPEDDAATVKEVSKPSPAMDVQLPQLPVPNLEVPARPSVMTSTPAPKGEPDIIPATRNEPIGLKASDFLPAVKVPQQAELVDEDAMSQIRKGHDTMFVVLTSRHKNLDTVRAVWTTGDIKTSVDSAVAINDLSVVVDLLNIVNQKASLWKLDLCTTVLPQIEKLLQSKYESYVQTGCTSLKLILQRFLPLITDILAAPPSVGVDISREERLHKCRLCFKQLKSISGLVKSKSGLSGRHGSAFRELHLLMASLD

Legend:
[1] = target: T1, EGFP-KATNAL2 (katanin-like 2) (mouse) (UniProt Q9D3R6); assay: co-IP; HEK293T cells co-transfected with pEGFP-Katnal2 (or empty pEGFP-C1) and a pmCherry construct; precipitated with anti-GFP-Trap-A beads; blots with antibodies against GFP and mCherry
T1 sequence: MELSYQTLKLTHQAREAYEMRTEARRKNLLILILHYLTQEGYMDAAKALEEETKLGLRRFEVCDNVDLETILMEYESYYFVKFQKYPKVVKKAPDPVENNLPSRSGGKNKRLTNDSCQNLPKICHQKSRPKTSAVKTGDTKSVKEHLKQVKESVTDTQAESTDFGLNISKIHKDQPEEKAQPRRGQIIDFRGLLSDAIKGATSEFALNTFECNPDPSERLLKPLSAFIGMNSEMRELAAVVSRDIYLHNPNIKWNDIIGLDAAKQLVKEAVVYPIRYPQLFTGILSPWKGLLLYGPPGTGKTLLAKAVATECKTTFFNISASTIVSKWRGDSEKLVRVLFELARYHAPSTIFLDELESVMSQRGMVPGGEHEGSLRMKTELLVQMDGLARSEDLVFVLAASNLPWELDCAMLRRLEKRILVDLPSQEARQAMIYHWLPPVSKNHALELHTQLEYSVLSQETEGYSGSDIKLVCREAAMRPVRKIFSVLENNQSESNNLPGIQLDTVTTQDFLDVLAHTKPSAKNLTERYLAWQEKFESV

[2] = target: T2, KATNAL2 (katanin-like 2), endogenous (mouse (endogenous in testis)) (UniProt Q9D3R6); assay: proximity ligation; Duolink in situ proximity ligation assay on isolated, fixed and permeabilized mouse elongating spermatids; Katnal2 KO/KO spermatids in parallel as control; probes bind if less than 40 nanometres apart
T2 sequence: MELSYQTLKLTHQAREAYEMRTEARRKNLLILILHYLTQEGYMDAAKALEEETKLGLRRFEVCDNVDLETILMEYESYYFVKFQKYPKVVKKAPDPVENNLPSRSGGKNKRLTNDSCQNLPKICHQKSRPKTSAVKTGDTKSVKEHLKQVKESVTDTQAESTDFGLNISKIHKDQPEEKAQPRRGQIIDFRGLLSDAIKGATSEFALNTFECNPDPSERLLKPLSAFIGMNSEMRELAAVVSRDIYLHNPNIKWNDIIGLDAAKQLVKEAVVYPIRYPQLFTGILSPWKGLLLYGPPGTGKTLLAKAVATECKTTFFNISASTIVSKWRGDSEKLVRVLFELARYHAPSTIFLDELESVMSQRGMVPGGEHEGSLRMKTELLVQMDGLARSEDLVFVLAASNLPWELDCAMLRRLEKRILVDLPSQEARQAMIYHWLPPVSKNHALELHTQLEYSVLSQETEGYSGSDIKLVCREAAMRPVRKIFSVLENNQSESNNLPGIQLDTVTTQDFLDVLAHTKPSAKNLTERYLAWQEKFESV

[3] = target: T1, EGFP-KATNAL2 (katanin-like 2) (mouse); assay: co-IP; HEK293T cells co-transfected with pEGFP-Katnal2 (or empty pEGFP-C1) and a pmCherry construct; precipitated with anti-GFP-Trap-A beads; blots with antibodies against GFP and mCherry; remark: listed apart in the source
[4] = target: T2, KATNAL2 (katanin-like 2), endogenous (mouse (endogenous in testis)); assay: co-IP; adult mouse testis lysate; precipitated with an antibody against the N-terminus of KATNAL2 (Pierce Co-Immunoprecipitation Kit); blots for KATNAL2, TUBD1 and TUBE1
[5] = target: T2, KATNAL2 (katanin-like 2), endogenous (mouse (endogenous in testis)); assay: proximity ligation; Duolink in situ proximity ligation assay on isolated, fixed and permeabilized mouse elongating spermatids; Katnal2 KO/KO spermatids in parallel as control; probes bind if less than 40 nanometres apart; remark: listed apart in the source

Molecule	binding [3]	binding [4]	binding [5]	other results
mCherry-KATNB1 (from UniProt Q8BG40 1-658)	–	–	–	binding [1]: binds
KATNB1, endogenous (from UniProt Q8BG40 1-658)	–	–	–	binding [2]: binds
mCherry-TUBD1 (δ-tubulin) (protein, UniProt Q9R1K7 1-455) MSIVTVQLGQCGNQIGFEVFDALFRDSHCSQGLCSKRDNEAYQASCRERFFREEENGVPVARAVLVDMEPKVINQTLSKAAQSGRWNYGQHTSFCQKQGSGNNWAYGYSVHGPKHEESIMNLIQTEVEKCDSLSGFFIIMSMAGGTGSGLGAFVTQKLQDQYSSSLKMNQIIWPYGTGEVIVQNYNSILTLSHLYRSSDALLIHENDAVHKICAKRMNIKQISFRDLNQVLAHQLGSVFQPTYSEDSSFHYRRNPLGDLMEHLVPHPEFKMLGVRNIPQMSAASLAYSAFTWAGLLKHLRQMLISSAKMEEGINWQVRPPLTGLPPIGKASAHKEHHFNTSLANLVVLRGREVHSADVEGFKDPALYTSWLEPVDAFSVWKTQRAFDKYEKSAALVSNSQLLVKPLDMIVGKAWNMFSSKAFIHQYTKFGMEEEDFLDSFALLEQVVASYGSLGP	binds	–	–	–
mCherry-TUBE1 (ε-tubulin) (protein, UniProt Q9D6T1 1-475) MTQSVVVQVGQCGNQIGCCFWDLALREHAAVNQKGIYDDAISSFFRNVDTRAVGDGGSISKGRISSLKARAVLIDMEEGVVNEILQGPLRDVFDSKQLITDISGSGNNWAVGHKVFGCLYREQILEKLRKSAEQCDCLQCFFIIHSMGGGTGSGLGTFLLKVLEDEFPEVYRFVTAVYPSSEDDVITSPYNSMLAMKELNEHADCVLPIDNQSLFDIISKIDLVVNSGKLGSAVKPKSLITSNMGAVKKHHKKPFDAMNNIVANLLLSLTSSARFEGSLNMDLNEISMNLVPFPKLHYLVSSLTPLYTLADVNIPPRRLDQMFSDAFSKDHQLIQADPRHSLYLACALIVRGNVQISDLRRNIERLKPALQFVSWNQEGWKTSLCSVPPVGHSHSLLALANNTCVKPTFMELRERFTRLYKKKAHLHHYLQVDGMEESTFTEAVSSLSALIQEYSDLDATKSLPVPDVPRLSVAL	binds	–	–	–
δ-tubulin (TUBD1), endogenous (protein, UniProt Q9R1K7 1-455) MSIVTVQLGQCGNQIGFEVFDALFRDSHCSQGLCSKRDNEAYQASCRERFFREEENGVPVARAVLVDMEPKVINQTLSKAAQSGRWNYGQHTSFCQKQGSGNNWAYGYSVHGPKHEESIMNLIQTEVEKCDSLSGFFIIMSMAGGTGSGLGAFVTQKLQDQYSSSLKMNQIIWPYGTGEVIVQNYNSILTLSHLYRSSDALLIHENDAVHKICAKRMNIKQISFRDLNQVLAHQLGSVFQPTYSEDSSFHYRRNPLGDLMEHLVPHPEFKMLGVRNIPQMSAASLAYSAFTWAGLLKHLRQMLISSAKMEEGINWQVRPPLTGLPPIGKASAHKEHHFNTSLANLVVLRGREVHSADVEGFKDPALYTSWLEPVDAFSVWKTQRAFDKYEKSAALVSNSQLLVKPLDMIVGKAWNMFSSKAFIHQYTKFGMEEEDFLDSFALLEQVVASYGSLGP	–	binds	binds	–
ε-tubulin (TUBE1), endogenous (protein, UniProt Q9D6T1 1-475) MTQSVVVQVGQCGNQIGCCFWDLALREHAAVNQKGIYDDAISSFFRNVDTRAVGDGGSISKGRISSLKARAVLIDMEEGVVNEILQGPLRDVFDSKQLITDISGSGNNWAVGHKVFGCLYREQILEKLRKSAEQCDCLQCFFIIHSMGGGTGSGLGTFLLKVLEDEFPEVYRFVTAVYPSSEDDVITSPYNSMLAMKELNEHADCVLPIDNQSLFDIISKIDLVVNSGKLGSAVKPKSLITSNMGAVKKHHKKPFDAMNNIVANLLLSLTSSARFEGSLNMDLNEISMNLVPFPKLHYLVSSLTPLYTLADVNIPPRRLDQMFSDAFSKDHQLIQADPRHSLYLACALIVRGNVQISDLRRNIERLKPALQFVSWNQEGWKTSLCSVPPVGHSHSLLALANNTCVKPTFMELRERFTRLYKKKAHLHHYLQVDGMEESTFTEAVSSLSALIQEYSDLDATKSLPVPDVPRLSVAL	–	binds	binds	–
